Measurements reported in PubChem BioAssay AID1224831 (NIAID, 2016).
Purpose: 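Retesting screen hits on the TLR4-driven TNF response with six separate siRNAs each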 (follow-up of hits). Cell system: human THP-1 B5 monocytic leukaemia cells carrying a TNF promoter luciferase reporter, made macrophage-like with PMA. Reagent: single siRNA against human genes, 50 nM. Duration: about 68 h of knock-down, then 4 h LPS. Challenge: LPS (Salmonella minnesota, TLR-grade) at 10 ng/ml for 4 h; PMA 5 ng/ml present during knock-down. Read-out: 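Firefly to renilla luciferase ratio of a TNF promoter reporter after 4 h LPS, scaled to plate median, turned into robust z-score, averaged over replicates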. Reading the numbers: TNF reporter z-score: higher = stronger LPS-induced TNF reporter signal; z-score, median over gene's siRNAs: higher = stronger TNF reporter signal across the gene's siRNAs. Call rule: 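Active when the replicate mean z-score is about -1 or lower, or about 1.5 or higher; lowered and raised TNF reporter signal both count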. Calls: active = changed TNF reporter (either direction); inactive = little change.
This is a random part of about 3,500 reagents. Over the whole deposit, 731 (21%) got an active call. 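Active means either lowered or raised reporter signal; the gene-median score did not drive the per-siRNA calls.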

What is on record for SLC25A44 (GeneID 9673) [SID315483354]?
TNF reporter z-score, replicate mean: 1.41; z-score, median over gene's siRNAs: 1.04; Outcome: inactive

With SLC25A44 (GeneID 9673) [SID315483355], what was measured?
TNF reporter z-score, replicate mean: 1.09; z-score, median over gene's siRNAs: 1.04; Outcome: inactive

What is on record for SLC25A44 (GeneID 9673) [SID315483356]?
TNF reporter z-score, replicate mean: 1; z-score, median over gene's siRNAs: 1.04; Outcome: inactive

With SLC25A44 (GeneID 9673) [SID315483357], how do the results read?
TNF reporter z-score, replicate mean: -0.79; z-score, median over gene's siRNAs: 1.04; Outcome: inactive

For SLC25A44 (GeneID 9673) [SID315483358], how do the results read?
TNF reporter z-score, replicate mean: -0.34; z-score, median over gene's siRNAs: 1.04; Outcome: inactive

Which result is listed for SLC25A44 (GeneID 9673) [SID315483359]?
TNF reporter z-score, replicate mean: 1.48; z-score, median over gene's siRNAs: 1.04; Outcome: inactive

With MYL1 (GeneID 4632) [SID315482616], what does the deposit list?
TNF reporter z-score, replicate mean: -1.02; z-score, median over gene's siRNAs: 0.165; Outcome: active

For MYL1 (GeneID 4632) [SID315482617], what does the deposit list?
TNF reporter z-score, replicate mean: 0.04; z-score, median over gene's siRNAs: 0.165; Outcome: inactive

For MYL1 (GeneID 4632) [SID315482618], what does the deposit list?
TNF reporter z-score, replicate mean: -0.69; z-score, median over gene's siRNAs: 0.165; Outcome: inactive

What did the screen give for MYL1 (GeneID 4632) [SID315482619]?
TNF reporter z-score, replicate mean: 1.34; z-score, median over gene's siRNAs: 0.165; Outcome: inactive

For MYL1 (GeneID 4632) [SID315482620], how do the results read?
TNF reporter z-score, replicate mean: 0.29; z-score, median over gene's siRNAs: 0.165; Outcome: inactive

With MYL1 (GeneID 4632) [SID315482621], what was measured?
TNF reporter z-score, replicate mean: 1.67; z-score, median over gene's siRNAs: 0.165; Outcome: active

For WNT7A (GeneID 7476) [SID315483018], what does the deposit list?
TNF reporter z-score, replicate mean: 1.26; z-score, median over gene's siRNAs: 0.22; Outcome: inactive

With WNT7A (GeneID 7476) [SID315483019], what was measured?
TNF reporter z-score, replicate mean: -0.79; z-score, median over gene's siRNAs: 0.22; Outcome: inactive

What did the screen give for WNT7A (GeneID 7476) [SID315483020]?
TNF reporter z-score, replicate mean: -1.39; z-score, median over gene's siRNAs: 0.22; Outcome: active

With WNT7A (GeneID 7476) [SID315483021], what does the deposit list?
TNF reporter z-score, replicate mean: -0.24; z-score, median over gene's siRNAs: 0.22; Outcome: inactive

How did the screen score WNT7A (GeneID 7476) [SID315483022]?
TNF reporter z-score, replicate mean: 2.66; z-score, median over gene's siRNAs: 0.22; Outcome: active

What did the screen give for WNT7A (GeneID 7476) [SID315483023]?
TNF reporter z-score, replicate mean: 0.68; z-score, median over gene's siRNAs: 0.22; Outcome: inactive

Records listed so far whose target name begins with S or s (6):
SLC25A44 (GeneID 9673) [SID315483354] — TNF reporter z-score, replicate mean = 1.41; z-score, median over gene's siRNAs = 1.04; Outcome = inactive
SLC25A44 (GeneID 9673) [SID315483355] — TNF reporter z-score, replicate mean = 1.09; z-score, median over gene's siRNAs = 1.04; Outcome = inactive
SLC25A44 (GeneID 9673) [SID315483356] — TNF reporter z-score, replicate mean = 1; z-score, median over gene's siRNAs = 1.04; Outcome = inactive
SLC25A44 (GeneID 9673) [SID315483357] — TNF reporter z-score, replicate mean = -0.79; z-score, median over gene's siRNAs = 1.04; Outcome = inactive
SLC25A44 (GeneID 9673) [SID315483358] — TNF reporter z-score, replicate mean = -0.34; z-score, median over gene's siRNAs = 1.04; Outcome = inactive
SLC25A44 (GeneID 9673) [SID315483359] — TNF reporter z-score, replicate mean = 1.48; z-score, median over gene's siRNAs = 1.04; Outcome = inactive

The results go on:
With SRP54 (GeneID 6729) [SID315482928], what was measured?
TNF reporter z-score, replicate mean: 0.34; z-score, median over gene's siRNAs: -1.74; Outcome: inactive

For SRP54 (GeneID 6729) [SID315482929], how do the results read?
TNF reporter z-score, replicate mean: -2.5; z-score, median over gene's siRNAs: -1.74; Outcome: active

For SRP54 (GeneID 6729) [SID315482930], how do the results read?
TNF reporter z-score, replicate mean: -1.73; z-score, median over gene's siRNAs: -1.74; Outcome: active

How did the screen score SRP54 (GeneID 6729) [SID315482931]?
TNF reporter z-score, replicate mean: -2.06; z-score, median over gene's siRNAs: -1.74; Outcome: active

For SRP54 (GeneID 6729) [SID315482932], what was measured?
TNF reporter z-score, replicate mean: -1.75; z-score, median over gene's siRNAs: -1.74; Outcome: active

Which result is listed for SRP54 (GeneID 6729) [SID315482933]?
TNF reporter z-score, replicate mean: -0.84; z-score, median over gene's siRNAs: -1.74; Outcome: inactive

With TMEM203 (GeneID 94107) [SID315487353], how do the results read?
TNF reporter z-score, replicate mean: 1.29; z-score, median over gene's siRNAs: 0.465; Outcome: inactive

For TMEM203 (GeneID 94107) [SID315487354], what does the deposit list?
TNF reporter z-score, replicate mean: 0.23; z-score, median over gene's siRNAs: 0.465; Outcome: inactive

How did the screen score TMEM203 (GeneID 94107) [SID315487355]?
TNF reporter z-score, replicate mean: 0.9; z-score, median over gene's siRNAs: 0.465; Outcome: inactive

What did the screen give for TMEM203 (GeneID 94107) [SID315487356]?
TNF reporter z-score, replicate mean: -0.86; z-score, median over gene's siRNAs: 0.465; Outcome: inactive

What did the screen give for TMEM203 (GeneID 94107) [SID315487357]?
TNF reporter z-score, replicate mean: -0.32; z-score, median over gene's siRNAs: 0.465; Outcome: inactive

Which result is listed for TMEM203 (GeneID 94107) [SID315487358]?
TNF reporter z-score, replicate mean: 0.7; z-score, median over gene's siRNAs: 0.465; Outcome: inactive
